PubChem BioAssay AID652243 – Drosophila RNAi Screening Center | 2013
The screen tested about 24,000 reagents; this is a random part of those with a known target gene and a result. Over the whole deposit, 246 (1%) were called active. 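Plates not normalised; calls are printed but the firefly/Renilla ratio behind them is not deposited; fold cut for lowering reported inconsistently.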 Raw values are not corrected between plates. The numbers tell different reagents against one gene apart. Names joined by + are all predicted targets of the reagent. Not stated in the record: the amount of reagent.

Screen: 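Fly regulators of androgen-dependent reporter output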 (primary screen)
Cell system: Drosophila S2R+ cells
Reagents: long dsRNA against Drosophila genes
Duration: 72 h (48 h, then 24 h hormone)
Challenge: synthetic androgen R1881 at 10 nM for 24 h
Read-out: 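Firefly light from an androgen-responsive reporter and Renilla control light per well, raw and unnormalised, for each of two replicates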
Reading the numbers: firefly reporter light: higher = more light from androgen-responsive reporter; Renilla control light: higher = more constitutive control signal (cell number, transfection)
Hit rule: 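Hit when the log firefly-to-Renilla ratio dropped or increased by a fixed fold versus the mean of GFP or LacZ controls across duplicate plates; lowering cut given as 1.5 and as 3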
Calls: active = hit: reporter lowered or raised; inactive = no hit

| target gene | reagent | firefly reporter light, replicate 1 | firefly reporter light, replicate 2 | Renilla control light, replicate 1 | Renilla control light, replicate 2 | Call |
| --- | --- | --- | --- | --- | --- | --- |
| Dus4 (GeneID 35179) | 1 | 1.06e6 | 7.88e5 | 1.66e6 | 1.42e6 | inactive |
| CG42329 (GeneID 33312) | 1 | 1.24e5 | 1.23e5 | 8.10e5 | 9.68e5 | inactive |
| CG42329 (GeneID 33312) | 2 | 1.29e5 | 70138 | 7.43e5 | 7.90e5 | inactive |
| Fbxl7 (GeneID 41935) | 1 | 2.18e5 | 2.38e5 | 3.08e6 | 3.56e6 | inactive |
| Fbxl7 (GeneID 41935) | 2 | 1.03e6 | 1.13e6 | 1.20e6 | 1.37e6 | inactive |
| GILT2 (GeneID 42788) | 1 | 54214 | 95544 | 7.69e5 | 7.26e5 | inactive |
| eIF3l (GeneID 39386) | 1 | 2.40e5 | 1.55e5 | 2.20e6 | 2.34e6 | inactive |
| eIF3l (GeneID 39386) | 2 | 3.04e5 | 4.22e5 | 3.26e5 | 7.15e5 | inactive |
| Ravus (GeneID 41626) | 1 | 25594 | 45506 | 6.29e5 | 1.09e6 | inactive |
| Sec15 (GeneID 42499) | 1 | 2.87e5 | 3.04e5 | 3.59e6 | 3.47e6 | inactive |
| Sec15 (GeneID 42499) | 2 | 2.49e5 | 3.70e5 | 8.34e5 | 8.34e5 | inactive |
| Nup154 (GeneID 34527) | 1 | 6.94e5 | 7.29e5 | 2.20e6 | 2.62e6 | inactive |
| Nup154 (GeneID 34527) | 2 | 2.40e5 | 1.95e5 | 6.06e5 | 5.90e5 | inactive |
| CG2875 (GeneID 31326) | 1 | 1.14e5 | 69567 | 1.03e6 | 5.76e5 | inactive |
| CG13021 (GeneID 31323) | 1 | 2.88e5 | 3.72e5 | 2.89e6 | 2.74e6 | inactive |
| CG10802 (GeneID 31318) | 1 | 1.11e5 | 1.28e5 | 1.15e6 | 9.80e5 | inactive |
| CG10802 (GeneID 31318) | 2 | 3.39e5 | 4.79e5 | 9.17e5 | 9.17e5 | inactive |
| Arp3 (GeneID 38898) | 1 | 6.35e5 | 8.87e5 | 1.25e6 | 1.45e6 | inactive |
| Arp3 (GeneID 38898) | 2 | 8.35e5 | 1.10e6 | 1.42e6 | 1.42e6 | inactive |
| ZnT77C (GeneID 40271) | 1 | 2.83e5 | 2.41e5 | 3.18e6 | 2.67e6 | inactive |
| ZnT77C (GeneID 40271) | 2 | 3.42e5 | 2.53e5 | 2.16e6 | 1.91e6 | inactive |
| brv3 (GeneID 31246) | 1 | 1.66e5 | 1.59e5 | 2.98e6 | 2.40e6 | inactive |
| brv3 (GeneID 31246) | 2 | 1.19e6 | 1.03e6 | 1.16e6 | 1.08e6 | inactive |
| PEK (GeneID 40653) | 1 | 30668 | 54639 | 3.29e5 | 2.35e5 | active |
| PEK (GeneID 40653) | 2 | – | – | – | – | inactive |
| PEK (GeneID 40653) | 3 | – | – | – | – | inactive |
| CG7453 (GeneID 32903) | 1 | 1.19e5 | 93475 | 4.04e5 | 3.24e5 | inactive |
| CG7453 (GeneID 32903) | 2 | 7.64e5 | 6.85e5 | 1.25e6 | 1.05e6 | inactive |
| EloA (GeneID 42749) | 1 | 8397 | 15908 | 1.68e5 | 1.91e5 | inactive |
| EloA (GeneID 42749) | 2 | 4.29e5 | 4.32e5 | 5.05e5 | 6.28e5 | inactive |
| Mtpalpha (GeneID 34276) | 1 | 7.23e5 | 7.10e5 | 1.27e6 | 1.95e6 | inactive |
| asRNA:CR42547 + CG15674 | 1 | 2.19e5 | 2.65e5 | 1.42e6 | 1.73e6 | inactive |
| zda (GeneID 37144) | 1 | 7.61e5 | 6.11e5 | 6.44e5 | 5.61e5 | inactive |
| zda (GeneID 37144) | 2 | 6.63e5 | 9.70e5 | 7.79e5 | 8.17e5 | inactive |
| CG9701 (GeneID 39872) | 1 | 69956 | 51314 | 5.70e5 | 3.81e5 | inactive |
| CG9701 (GeneID 39872) | 2 | 3.48e5 | 2.80e5 | 5.90e5 | 6.54e5 | inactive |
| CG12075 (GeneID 31815) | 1 | 47288 | 49888 | 5.59e5 | 4.70e5 | inactive |
| CG12075 (GeneID 31815) | 2 | 8.45e5 | 1.03e6 | 1.16e6 | 1.14e6 | inactive |
| achi (GeneID 36373) | 1 | 3.57e5 | 2.44e5 | 1.70e6 | 1.47e6 | inactive |
| achi (GeneID 36373) | 2 | 9.57e5 | 1.09e6 | 1.34e6 | 1.30e6 | inactive |
| GstD11 (GeneID 41512) | 1 | 1.33e5 | 1.51e5 | 2.92e6 | 2.46e6 | inactive |
| GstD11 (GeneID 41512) | 2 | 2.01e5 | 1.05e5 | 3.02e5 | 2.97e5 | inactive |
| CG4577 (GeneID 33291) | 1 | 1.59e5 | 1.42e5 | 1.19e6 | 7.84e5 | inactive |
| Damm (GeneID 36266) | 1 | 3.52e5 | 2.46e5 | 2.26e6 | 1.78e6 | inactive |
| CG9123 (GeneID 32462) | 1 | 6.91e5 | 7.27e5 | 4.17e6 | 4.37e6 | inactive |
| Alp5 (GeneID 42482) | 1 | 48543 | 47333 | 4.87e5 | 4.62e5 | inactive |
| Alp5 (GeneID 42482) | 2 | 4.69e5 | 6.40e5 | 8.74e5 | 8.74e5 | inactive |
| CG17618 (retired record) + CG45049 | 1 | 2.14e5 | 2.28e5 | 3.16e6 | 3.20e6 | inactive |
| CG17618 (retired record) + CG45049 | 2 | 6.69e5 | 6.87e5 | 1.87e6 | 2.43e6 | inactive |
| ND-B14.5B (GeneID 33528) | 1 | 1.43e5 | 1.55e5 | 1.29e6 | 1.36e6 | inactive |
| CG4586 (GeneID 31641) | 1 | 1.45e5 | 1.06e5 | 1.15e6 | 5.13e5 | inactive |
| bt (GeneID 43814) | 1 | 80479 | 66195 | 7.82e5 | 5.55e5 | inactive |
| bt (GeneID 43814) | 2 | 1.46e5 | 84645 | 7.48e5 | 4.96e5 | inactive |
| bt (GeneID 43814) | 3 | 8.62e5 | 9.23e5 | 2.11e6 | 1.81e6 | inactive |
| bt (GeneID 43814) | 4 | – | – | – | – | inactive |
| CG32066 (GeneID 39206) | 1 | 5.80e5 | 7.83e5 | 7.17e5 | 9.18e5 | inactive |
| CG32066 (GeneID 39206) | 2 | 2.11e5 | 1.48e5 | 2.30e6 | 1.63e6 | inactive |
| Naa40 (GeneID 43500) | 1 | 1.63e5 | 2.00e5 | 2.01e6 | 2.69e6 | inactive |
| BTBD9 (GeneID 32000) | 1 | 5.35e5 | 3.67e5 | 4.47e6 | 3.02e6 | inactive |
| BTBD9 (GeneID 32000) | 2 | 4.74e5 | 6.16e5 | 3.82e5 | 3.55e5 | inactive |
| CG7220 (GeneID 36129) | 1 | 1.70e5 | 2.36e5 | 3.79e5 | 5.87e5 | inactive |
| CG7220 (GeneID 36129) | 2 | 3.15e5 | 3.23e5 | 1.82e6 | 2.25e6 | inactive |
| CG7220 (GeneID 36129) | 3 | 3.00e5 | 2.68e5 | 7.74e5 | 6.30e5 | inactive |
| CG17145 (GeneID 40215) | 1 | 2.43e5 | 2.43e5 | 2.01e6 | 1.87e6 | inactive |
| Vps60 (GeneID 39964) | 1 | 2.21e5 | 2.27e5 | 2.30e6 | 2.43e6 | inactive |
| mEFTu1 (GeneID 44438) | 1 | 7.93e5 | 8.37e5 | 1.23e6 | 1.47e6 | inactive |
| mEFTu1 (GeneID 44438) | 2 | 3.36e5 | 4.10e5 | 1.31e6 | 1.31e6 | inactive |
| CG14756 (GeneID 35798) | 1 | 1.58e5 | 1.40e5 | 1.02e6 | 8.08e5 | inactive |
| CG14756 (GeneID 35798) | 2 | 1.06e6 | 1.37e6 | 8.27e5 | 8.68e5 | inactive |
| CG16758 (GeneID 38315) | 1 | 1.43e5 | 1.73e5 | 3.73e5 | 4.50e5 | inactive |
| CG16758 (GeneID 38315) | 2 | 1.01e6 | 8.63e5 | 2.10e6 | 2.27e6 | inactive |
| CG16758 (GeneID 38315) | 3 | 4.93e5 | 9.11e5 | 9.42e5 | 1.38e6 | inactive |
| CG13698 (GeneID 40000) | 1 | 29894 | 52209 | 2.76e5 | 2.61e5 | inactive |
| ple (GeneID 38746) | 1 | 50187 | 70140 | 6.63e5 | 9.06e5 | inactive |

Entries listed so far with an active call (1):
| target gene | reagent | firefly reporter light, replicate 1 | firefly reporter light, replicate 2 | Renilla control light, replicate 1 | Renilla control light, replicate 2 | Call |
| --- | --- | --- | --- | --- | --- | --- |
| PEK (GeneID 40653) | 1 | 30668 | 54639 | 3.29e5 | 2.35e5 | active |
